Experimental data as given in paper PMC5529512.
Results are given in words; binding and its absence hold for the method and conditions named. Binding seen in cells or lysates may run through a third protein. These calls come from enrichment with a bait or labelling near it, and not all partners need be listed.

By UniProt entry, the sequences of proteins in these tests, tags left out. Residues count along the entry.
UniProt Q9Y4K1, residues 409-2131: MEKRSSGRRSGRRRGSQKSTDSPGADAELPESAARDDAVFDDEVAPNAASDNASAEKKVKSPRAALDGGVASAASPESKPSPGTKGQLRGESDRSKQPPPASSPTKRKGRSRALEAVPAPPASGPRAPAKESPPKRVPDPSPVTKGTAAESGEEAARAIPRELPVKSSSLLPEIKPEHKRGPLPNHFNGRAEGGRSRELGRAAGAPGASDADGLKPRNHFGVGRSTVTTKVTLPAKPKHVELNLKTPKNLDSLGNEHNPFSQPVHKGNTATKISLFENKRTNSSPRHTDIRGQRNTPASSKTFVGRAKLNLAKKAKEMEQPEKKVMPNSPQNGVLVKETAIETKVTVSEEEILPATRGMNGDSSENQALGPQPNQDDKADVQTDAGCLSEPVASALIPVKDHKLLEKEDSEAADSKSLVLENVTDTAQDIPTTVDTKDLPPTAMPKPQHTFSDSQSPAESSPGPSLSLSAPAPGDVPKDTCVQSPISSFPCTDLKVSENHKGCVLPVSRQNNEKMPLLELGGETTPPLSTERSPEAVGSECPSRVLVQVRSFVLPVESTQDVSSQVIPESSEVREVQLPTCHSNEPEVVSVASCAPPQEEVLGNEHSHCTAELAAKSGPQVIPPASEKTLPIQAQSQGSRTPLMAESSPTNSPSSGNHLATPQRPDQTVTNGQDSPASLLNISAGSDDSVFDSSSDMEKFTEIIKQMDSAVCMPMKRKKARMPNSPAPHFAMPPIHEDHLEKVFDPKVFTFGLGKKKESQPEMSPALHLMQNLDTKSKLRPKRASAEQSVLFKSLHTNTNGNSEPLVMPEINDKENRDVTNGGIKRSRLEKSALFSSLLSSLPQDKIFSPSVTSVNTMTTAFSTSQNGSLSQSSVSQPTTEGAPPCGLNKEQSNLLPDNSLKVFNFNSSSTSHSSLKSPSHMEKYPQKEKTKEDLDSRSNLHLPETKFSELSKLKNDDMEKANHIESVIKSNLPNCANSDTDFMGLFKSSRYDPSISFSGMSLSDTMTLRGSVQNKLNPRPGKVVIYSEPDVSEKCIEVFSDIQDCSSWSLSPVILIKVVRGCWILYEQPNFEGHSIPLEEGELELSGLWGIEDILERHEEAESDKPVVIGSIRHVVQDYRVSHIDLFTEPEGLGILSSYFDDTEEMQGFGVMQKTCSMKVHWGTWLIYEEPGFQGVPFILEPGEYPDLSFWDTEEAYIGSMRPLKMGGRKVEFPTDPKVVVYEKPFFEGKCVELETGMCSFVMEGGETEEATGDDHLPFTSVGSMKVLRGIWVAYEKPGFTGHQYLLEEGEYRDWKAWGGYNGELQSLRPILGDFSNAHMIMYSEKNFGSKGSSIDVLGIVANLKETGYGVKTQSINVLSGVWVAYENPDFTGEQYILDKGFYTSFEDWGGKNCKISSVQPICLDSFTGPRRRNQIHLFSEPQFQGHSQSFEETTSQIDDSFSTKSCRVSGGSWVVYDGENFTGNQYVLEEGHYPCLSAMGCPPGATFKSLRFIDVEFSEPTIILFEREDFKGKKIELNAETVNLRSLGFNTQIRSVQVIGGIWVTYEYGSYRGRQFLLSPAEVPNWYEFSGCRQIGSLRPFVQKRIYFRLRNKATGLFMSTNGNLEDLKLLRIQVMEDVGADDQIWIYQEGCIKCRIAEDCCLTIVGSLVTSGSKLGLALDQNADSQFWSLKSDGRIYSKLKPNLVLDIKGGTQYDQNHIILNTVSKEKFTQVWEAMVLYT
UniProt P35580: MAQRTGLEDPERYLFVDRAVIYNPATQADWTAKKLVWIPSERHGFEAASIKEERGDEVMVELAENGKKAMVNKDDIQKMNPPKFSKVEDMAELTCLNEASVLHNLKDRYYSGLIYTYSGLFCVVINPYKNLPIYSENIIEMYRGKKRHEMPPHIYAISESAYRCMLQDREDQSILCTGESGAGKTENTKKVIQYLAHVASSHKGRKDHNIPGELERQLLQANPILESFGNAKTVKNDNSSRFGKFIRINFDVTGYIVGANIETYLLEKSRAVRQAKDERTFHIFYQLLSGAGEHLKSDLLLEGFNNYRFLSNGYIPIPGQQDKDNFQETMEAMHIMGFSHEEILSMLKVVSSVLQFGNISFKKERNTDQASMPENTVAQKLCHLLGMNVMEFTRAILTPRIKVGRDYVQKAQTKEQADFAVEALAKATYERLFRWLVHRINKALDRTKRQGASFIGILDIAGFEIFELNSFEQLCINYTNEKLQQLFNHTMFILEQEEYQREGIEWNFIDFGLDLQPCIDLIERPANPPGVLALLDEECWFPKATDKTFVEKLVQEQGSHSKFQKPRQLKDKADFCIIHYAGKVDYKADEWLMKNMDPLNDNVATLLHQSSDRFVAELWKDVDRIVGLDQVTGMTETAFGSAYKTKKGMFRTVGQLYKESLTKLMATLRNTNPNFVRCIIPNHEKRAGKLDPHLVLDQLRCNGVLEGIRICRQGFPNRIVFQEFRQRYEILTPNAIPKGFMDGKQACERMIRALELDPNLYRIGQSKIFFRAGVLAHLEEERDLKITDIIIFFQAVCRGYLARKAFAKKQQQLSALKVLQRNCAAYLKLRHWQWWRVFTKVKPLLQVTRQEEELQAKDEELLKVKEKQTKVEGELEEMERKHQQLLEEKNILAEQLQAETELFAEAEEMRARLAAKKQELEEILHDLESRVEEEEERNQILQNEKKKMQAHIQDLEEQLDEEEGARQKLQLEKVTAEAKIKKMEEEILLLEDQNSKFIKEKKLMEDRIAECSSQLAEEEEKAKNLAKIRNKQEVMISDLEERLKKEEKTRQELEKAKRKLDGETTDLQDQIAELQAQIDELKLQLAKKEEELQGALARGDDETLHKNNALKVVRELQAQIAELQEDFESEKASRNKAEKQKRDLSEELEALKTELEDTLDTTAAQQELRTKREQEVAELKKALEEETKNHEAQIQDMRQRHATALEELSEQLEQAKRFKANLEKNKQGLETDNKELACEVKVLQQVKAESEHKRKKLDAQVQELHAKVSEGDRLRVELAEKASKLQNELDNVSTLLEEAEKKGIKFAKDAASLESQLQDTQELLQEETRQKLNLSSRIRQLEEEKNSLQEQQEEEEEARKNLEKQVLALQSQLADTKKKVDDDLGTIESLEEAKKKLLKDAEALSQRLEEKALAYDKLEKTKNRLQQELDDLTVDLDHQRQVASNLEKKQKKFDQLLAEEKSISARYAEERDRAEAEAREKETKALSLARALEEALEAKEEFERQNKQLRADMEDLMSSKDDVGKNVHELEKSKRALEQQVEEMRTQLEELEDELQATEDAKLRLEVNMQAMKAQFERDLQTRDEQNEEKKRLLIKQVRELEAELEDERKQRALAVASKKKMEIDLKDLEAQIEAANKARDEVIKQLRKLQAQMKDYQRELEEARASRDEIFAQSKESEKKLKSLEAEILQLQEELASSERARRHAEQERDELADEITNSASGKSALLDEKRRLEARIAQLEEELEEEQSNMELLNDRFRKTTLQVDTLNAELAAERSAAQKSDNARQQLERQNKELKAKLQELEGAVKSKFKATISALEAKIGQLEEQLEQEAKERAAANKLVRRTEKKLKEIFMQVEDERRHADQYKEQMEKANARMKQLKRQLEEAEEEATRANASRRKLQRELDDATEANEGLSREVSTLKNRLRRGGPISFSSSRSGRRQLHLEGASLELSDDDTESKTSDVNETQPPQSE
UniProt O75369: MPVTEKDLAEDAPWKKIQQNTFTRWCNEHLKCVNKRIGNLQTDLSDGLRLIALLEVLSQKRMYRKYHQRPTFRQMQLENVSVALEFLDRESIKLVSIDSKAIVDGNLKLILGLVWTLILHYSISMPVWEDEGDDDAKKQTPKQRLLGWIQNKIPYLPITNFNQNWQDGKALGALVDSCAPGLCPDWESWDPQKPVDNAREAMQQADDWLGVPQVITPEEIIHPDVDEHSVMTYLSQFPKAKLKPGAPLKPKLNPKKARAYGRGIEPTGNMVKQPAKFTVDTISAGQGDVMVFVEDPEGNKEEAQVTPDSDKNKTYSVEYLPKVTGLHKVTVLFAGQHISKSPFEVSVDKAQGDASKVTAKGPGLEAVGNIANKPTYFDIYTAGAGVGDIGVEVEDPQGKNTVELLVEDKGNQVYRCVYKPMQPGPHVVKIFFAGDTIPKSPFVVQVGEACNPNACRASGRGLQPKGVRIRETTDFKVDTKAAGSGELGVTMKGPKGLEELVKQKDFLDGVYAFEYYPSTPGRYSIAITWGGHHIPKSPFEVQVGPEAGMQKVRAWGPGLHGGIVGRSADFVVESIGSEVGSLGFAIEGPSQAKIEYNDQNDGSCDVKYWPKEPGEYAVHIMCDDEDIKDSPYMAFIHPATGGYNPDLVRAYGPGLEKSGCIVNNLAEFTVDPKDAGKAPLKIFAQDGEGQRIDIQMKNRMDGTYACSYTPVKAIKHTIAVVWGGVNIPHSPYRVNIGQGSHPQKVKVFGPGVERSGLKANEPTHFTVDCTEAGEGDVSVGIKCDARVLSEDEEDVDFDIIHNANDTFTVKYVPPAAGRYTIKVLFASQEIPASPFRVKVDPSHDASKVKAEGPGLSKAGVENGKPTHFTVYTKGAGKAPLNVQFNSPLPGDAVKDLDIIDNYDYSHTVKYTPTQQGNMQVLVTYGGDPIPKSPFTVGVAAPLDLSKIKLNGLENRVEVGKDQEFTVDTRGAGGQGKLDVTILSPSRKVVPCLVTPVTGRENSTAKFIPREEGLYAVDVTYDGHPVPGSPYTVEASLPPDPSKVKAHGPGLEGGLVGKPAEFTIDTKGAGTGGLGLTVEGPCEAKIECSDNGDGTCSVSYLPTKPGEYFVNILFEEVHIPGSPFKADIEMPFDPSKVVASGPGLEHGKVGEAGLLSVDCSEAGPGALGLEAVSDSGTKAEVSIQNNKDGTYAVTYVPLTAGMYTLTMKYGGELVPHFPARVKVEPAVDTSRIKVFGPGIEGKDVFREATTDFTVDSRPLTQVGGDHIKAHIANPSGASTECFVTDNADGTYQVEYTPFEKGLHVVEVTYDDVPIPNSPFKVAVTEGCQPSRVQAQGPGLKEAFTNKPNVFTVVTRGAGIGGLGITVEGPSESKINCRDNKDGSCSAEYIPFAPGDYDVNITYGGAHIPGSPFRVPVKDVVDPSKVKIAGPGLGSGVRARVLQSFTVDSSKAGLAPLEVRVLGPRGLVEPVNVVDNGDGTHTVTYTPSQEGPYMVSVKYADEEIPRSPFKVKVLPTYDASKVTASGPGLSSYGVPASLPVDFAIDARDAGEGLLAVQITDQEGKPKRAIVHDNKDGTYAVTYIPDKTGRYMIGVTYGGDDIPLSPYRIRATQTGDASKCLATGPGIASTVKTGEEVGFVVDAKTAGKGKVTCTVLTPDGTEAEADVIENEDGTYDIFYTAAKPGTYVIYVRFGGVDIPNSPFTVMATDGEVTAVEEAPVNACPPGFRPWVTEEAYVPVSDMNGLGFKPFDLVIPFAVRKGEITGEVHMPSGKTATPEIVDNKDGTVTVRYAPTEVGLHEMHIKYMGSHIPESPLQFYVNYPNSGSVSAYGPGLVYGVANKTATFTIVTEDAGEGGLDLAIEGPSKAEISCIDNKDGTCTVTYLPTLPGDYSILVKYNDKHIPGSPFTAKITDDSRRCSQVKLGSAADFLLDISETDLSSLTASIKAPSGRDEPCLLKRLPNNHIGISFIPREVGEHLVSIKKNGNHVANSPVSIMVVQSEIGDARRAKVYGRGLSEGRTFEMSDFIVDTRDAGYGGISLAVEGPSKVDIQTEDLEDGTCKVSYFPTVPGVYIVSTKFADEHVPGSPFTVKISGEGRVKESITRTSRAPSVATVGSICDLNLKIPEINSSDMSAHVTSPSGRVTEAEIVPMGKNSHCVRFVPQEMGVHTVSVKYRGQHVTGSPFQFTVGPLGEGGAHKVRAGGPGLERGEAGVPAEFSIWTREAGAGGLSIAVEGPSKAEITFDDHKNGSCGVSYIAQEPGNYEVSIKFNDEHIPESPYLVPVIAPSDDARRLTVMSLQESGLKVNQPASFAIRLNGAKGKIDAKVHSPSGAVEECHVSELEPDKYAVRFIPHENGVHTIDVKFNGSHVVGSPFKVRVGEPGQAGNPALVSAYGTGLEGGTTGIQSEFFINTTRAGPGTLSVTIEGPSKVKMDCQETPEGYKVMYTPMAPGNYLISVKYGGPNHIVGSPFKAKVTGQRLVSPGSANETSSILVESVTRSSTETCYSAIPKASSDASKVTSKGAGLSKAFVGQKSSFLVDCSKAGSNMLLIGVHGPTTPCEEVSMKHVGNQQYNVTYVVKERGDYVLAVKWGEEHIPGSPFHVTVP

Biological target: AIM1 (absent in melanoma 1), biotin-affinity-tagged, wild type (human) (UniProt Q9Y4K1)
Experiment: affinity purification with mass spectrometry; biotin-affinity-tagged AIM1 transiently expressed in HEK293 against control vector; lysis in CoIP buffer (50 mM HEPES pH 7.5, 1% Triton X-100); streptavidin beads, elution with AcTEV protease, 60 kDa size selection, LC-MS/MS; single experiment

| binding | Substance |
| --- | --- |
| binds | Keratin 5 (from UniProt P13647 1-590) |
| binds | Vimentin (from UniProt P08670 1-466) |
| binds | Keratin 6A (from UniProt P02538 1-564) |
| binds | Myosin, heavy polypeptide 10 (from UniProt P35580 1-1976) |
| binds | Keratin 1 (from UniProt P04264 1-644) |
| binds | Keratin 10 (from UniProt P13645 1-584) |

Continued, substance first:

| Substance | binding |
| --- | --- |
| Myosin, heavy polypeptide 9 (from UniProt P35579 1-1960) | binds |
| Poly (ADP-ribose) polymerase (from UniProt P09874 1-1014) | binds |
| Keratin 2 (from UniProt P35908 1-639) | binds |
| Filamin B (from UniProt O75369 1-2602) | binds |
| Filamin A, alpha isoform 1 (from UniProt P21333-2 1-2639) | binds |
| Drebrin 1 isoform a (from UniProt Q16643 1-649) | binds |
| Clathrin heavy chain 1 (from UniProt Q00610 1-1675) | binds |
